From PubChem BioAssay AID1347426 (Functional Genomics Laboratory (NCATS/FGL), 2020)
In all, about 31,000 sequences went through this assay and about 1,400 (4.5%) were called active.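 The calls were made as follows: active = median seed-adjusted z-score above 1 or below -1; inactive = the rest.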 The list shows a part of the results.

experiment: Novel Modifiers of Survival Motor Neuron (SMN) Protein: Gene Identification via Genome-wide siRNA Screen; conditions: HEK293T SMN2-luciferase reporter, siRNA knockdown, 72 h; actives lie on both sides;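 also: luminescence tracks full-length SMN protein made from the SMN2 reporter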
Outline: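 HEK293T cells stably expressing an SMN2 splicing/cDNA-luciferase reporter were reverse-transfected with a druggable-genome siRNA library and read by luminescence at 72 hours; hits defined by MAD score above 1.0 or below -1.0.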

Row | Sequence | median seed-adjusted z-score
1 | GGUUUGACAUGACACCUAATT against GFRA2 | inactive: 0.363
2 | UGAUCAAAUUCACAACCAATT against UBE2L6 | inactive: -0.455
3 | AGCCCUAUGUCAUCUCCUATT against ALDH2 | inactive: -0.216
4 | AGCAUGCACUGAUCAGUUUTT against ACSL6 | inactive: -0.0934
5 | CCACUGUUGGUGAUCCAAUTT against COL12A1 | inactive: 0.00422
6 | GAUUGGAAUCUAAUAACUATT against FGF2 | inactive: 0.0208
7 | GGAGAAAAACUAUAUGAAUTT against ZNF585B | inactive: 0.158
8 | GCAGAACUCUAAGGAAAGATT against HINT3 | inactive: 0
9 | GCAGCAUGAGAAUGUCAAATT against GPD1 | inactive: 0.558
10 | GCAUUAAGCCUGCAACUCATT against ZNF532 | inactive: -0.0289
11 | GCACCCUAGUUAUCGCUGATT against PALLD | inactive: -0.307
12 | GAAUCAUAAUCGCUCCUUUTT against SPRR1A | inactive: -0.0536
13 | GCAAGAGUAUCUAAAGAUATT against SAAL1 | inactive: 0.00224
14 | GAGCGGGAAAUAAGCCUAATT against BTN3A2 | inactive: 0.402
15 | GGAGAGAGACGUGUACAUATT against SREBF1 | inactive: -0.0469
16 | GGAAGAACUUAGUAAGUCATT against ZFP106 | inactive: 0.286
17 | CGCUCGAUUCUAUUCGCUATT against CHRNA5 | inactive: 0
18 | CGAAGAGAUUGCAAAAGUUTT against TMED10 | inactive: 0.523
19 | GAGACUUUCUACAAUACUATT against EIF4A2 | inactive: 0
20 | GGCAGUAAAGGAAAUCGAATT against JARID1B | inactive: 0
21 | CGUCUAUAUAGGGAGAAAATT against LILRB2 | inactive: -0.911
22 | CAGUCACUGAAAUAUUAGATT against NUDT4 | inactive: -0.0306

Row | Sequence | median seed-adjusted z-score
23 | GGGUAAUAAUACUAGCAAUTT against ITGA8 | inactive: -0.215
24 | CAACAGAAUAUGCCGUAUATT against SNRPA1 | active: -2.71
25 | CCACGGUCAUCAUAUGUCATT against BICC1 | inactive: -0.352
26 | CAGCUGACGUGACCCAUGATT against SLC2A1 | inactive: -0.349
27 | GGAAAUCUAGUUAUUUACATT against NME1 | inactive: 0.188
28 | CGUCAUCUCCCGUUCUCCATT against CIB1 | inactive: 0.14
29 | GCUUUGCUCUGUACCCUGATT against CTSK | inactive: 0.0972
30 | CUACCACCUCGGUUAUUUUTT against SYNPO2L | inactive: -0.47
31 | CCAGAAGUCUGGAUAGAUUTT against FIGLA | inactive: -0.064
32 | GCUCAACAACUGGGACAAATT against TBC1D10A | inactive: -0.722
33 | CUACGUUACUUUCCCUCAATT against FOXD4L6 | inactive: -0.137
34 | GGAAAUUGAGAAUCUAGAATT against SLK | inactive: 0.0479
35 | CGGCUGCAUGAUUACGUUATT against RAB26 | inactive: 0.171
36 | GGUAUGAUCUUGUCCUGAUTT against LIPH | inactive: 0.0437
37 | GCGCUAAGCUGCAACGAAATT against LHX2 | inactive: 0.464
38 | CGACAACCACUUCAAUUAUTT against CHN2 | inactive: -0.478
39 | GCUGGAUUGUGAAUCGCAUTT against MYO3B | inactive: 0.51
40 | GGUAAUACGUGAAAGCAAATT against IGF1 | inactive: 0.559
41 | GAUUUGUCGUCAUUAAUCATT against CCT6B | inactive: 0
42 | GAGUCUGCUUGGGUGAAUATT against SLC7A2 | inactive: -0.245
43 | CACUCCAUCUCUUACAAGATT against KCNK9 | inactive: 0.735
44 | GGCUUAUAAGGAUUUGUAUTT against DPYSL3 | inactive: -0.226

Row | Sequence | median seed-adjusted z-score
45 | CAUUGAACAUUGAGUGUUUTT against HSPA4L | inactive: 0.288
46 | GCCUGGUACUCCUCUAUAUTT against CYP3A43 | inactive: -0.599
47 | GUAUGGAUUUGUUAACUAUTT against ELAVL4 | inactive: -0.0523
48 | GAAGCAGAGGACAACAUGATT against SNRPD3 | active: -2.69
49 | GUGACGAAAUGGAACAAGATT against EIF2AK3 | inactive: -0.0208
50 | AGAAUCGUGUGGAAAAAGATT against PARK7 | inactive: -0.357
51 | GCGAGAGAGUUGUACAACATT against ITPR2 | inactive: 0
52 | CAAAUAAGCUCAGAACAAATT against DOC2B | inactive: -0.423
53 | GACCAUGUAUAGGAGCGAATT against SLC25A19 | inactive: -0.104
54 | CUUCUGAACUCGGUCCUCATT against SLC5A5 | active: 1.01
55 | GCCGAUUUCUACGAGCAGATT against NAGLU | inactive: -0.526
56 | GACUCGACAGGUUUUUAUATT against CDC2L2 | inactive: 0.153
57 | AGCUGUCAGUGAAGCUCUATT against C8G | inactive: -0.622
58 | GCAUAAUAAGGGUAGGGAUTT against DDX53 | inactive: -0.136
59 | GGAAGAUUACAACCGAACATT against ARHGEF12 | inactive: 0.136
60 | GAAUAUCCGAGGGAAGGUATT against UBN1 | inactive: 0.0782
61 | GAAUCCCACAGGAUCAUUATT against GRB10 | inactive: -0.0341
62 | CCACGCUGAUCUGAAGAUATT against LRPAP1 | inactive: -0.0616
63 | GCCUAGAACAACUAACGAATT against RB1CC1 | inactive: 0.0878
64 | CGAAUUAUGCUGUAUCAUUTT against ACTR6 | inactive: 0.189
65 | CCUCGAAACCGACGAGAAATT against RBMXL2 | inactive: -0.387
66 | GGACCAUAAUCAACAUAGATT against ZNF585B | inactive: 0.158

Copied from the list:
Value for GUGACGAAAUGGAACAAGATT against EIF2AK3 under median seed-adjusted z-score: inactive: -0.0208
Value for GCCGAUUUCUACGAGCAGATT against NAGLU under median seed-adjusted z-score: inactive: -0.526
Value for GGACCAUAAUCAACAUAGATT against ZNF585B under median seed-adjusted z-score: inactive: 0.158
Value for GAAUCCCACAGGAUCAUUATT against GRB10 under median seed-adjusted z-score: inactive: -0.0341
Value for CGAAUUAUGCUGUAUCAUUTT against ACTR6 under median seed-adjusted z-score: inactive: 0.189
Value for GAAGCAGAGGACAACAUGATT against SNRPD3 under median seed-adjusted z-score: active: -2.69
Value for GCAUAAUAAGGGUAGGGAUTT against DDX53 under median seed-adjusted z-score: inactive: -0.136

Following part:

Row | Sequence | median seed-adjusted z-score
67 | GAACCAGGUUGCAAGAUUUTT against RUNX1 | inactive: -0.0264
68 | GGUGGAUGAUGCUAGUGUATT against GALNT3 | inactive: -0.0426
69 | CAGUCUUCUUAGAAGCUCUTT against SERTAD3 | inactive: -0.216
70 | AGACCACGACUCCAGCUUATT against EIF4H | inactive: 0.0349
71 | CGUGCUUUGAGUACCCGAATT against TAT | inactive: 0.257
72 | CUAUUAUCCUUGCCGUAAATT against MTIF2 | inactive: 0.236
73 | GGGAAGAACAGAAUACUGATT against ZNF563 | inactive: 0.00283
74 | AGGCUACUGCGUGUACAUATT against SLC16A5 | inactive: -0.151
75 | GGAUUAUCCUGGACUCUGUTT against HPX | inactive: -0.451
76 | GAGAUAUUGUGGAAGGGAATT against GPR133 | inactive: -0.681
77 | GCUGGGAAGGGAUACCACATT against LTBP3 | inactive: -0.0236
78 | GUCUGGAGAUCAUAUUUUUTT against PIM3 | active: -1.01
79 | GCUCAGAAGCGGAAUCAGATT against SIGLEC10 | inactive: 0.0542
80 | GGAUCUAAAAUAUUGUUCATT against KIF4B | inactive: -0.0753
81 | GCUGCGUCAUAUUCAGUCATT against HERC5 | inactive: -0.422
82 | GAAAGUCGCUUUCUUUUUATT against FOXC1 | inactive: -0.447
83 | GCAAAGGAGUCGAGUAUAATT against CRYZ | inactive: -0.809
84 | GAACUUCAAUGGAAAACAUTT against L3MBTL4 | inactive: -0.189
85 | UGCUCUUCUUGGAUGGUGATT against QPCTL | inactive: -0.422
86 | CCUCAGAUCUACCCACAGATT against CSF2RB | inactive: -0.454
87 | AGACCCUGGUUAGACCAAATT against MDM2 | inactive: 0.258
88 | CUCCUCGAGUUAAUCAAAATT against TSSK1B | inactive: -0.169

Row | Sequence | median seed-adjusted z-score
89 | GACUCAACAUACACCCAGATT against NEGR1 | inactive: 0.194
90 | ACACCCAUCCUUAAGCUAATT against NXPH3 | inactive: 0.056
91 | GCGUGGAAAAUAUUCGUGATT against SMC1B | inactive: 0
92 | CCCUAAUCAUCAUCCAGGATT against ZSCAN4 | inactive: 0.617
93 | CAAUUACGGAACUCACAAATT against ZNF8 | inactive: 0.97
94 | CCUCCACAGUCAUAGCCUATT against SSH1 | inactive: 0.209
95 | AGAGUGCGGAUGAUGUGAATT against PVALB | inactive: 0.11
96 | CUAUCGAACUGGGAAACGATT against MDN1 | inactive: 0.187
97 | GGACUGUUGUAAUAACGGATT against UPP2 | inactive: 0.586
98 | GGAGAUAUGCAAAGCAGAATT against POU5F1 | inactive: 0.0495
99 | CCAGCUCAUCGUUCUCCUATT against CLCN7 | inactive: -0.28
100 | GGAUUGUUGUUCAUGAAUUTT against TLL1 | inactive: 0.396
101 | GAUAAUCAACGACUAUGAATT against CASP8 | inactive: 0.413
102 | GUCUAAUGCACUUAGCUAATT against HEL308 | inactive: 0.229
103 | AAAACGGAGUGGAAAAGAATT against DZIP1L | inactive: 0.203
104 | GAACUAUAAAGGUAUGGAATT against BTRC | inactive: -0.0819
105 | GCAAUUUGCUGGGAUCAAUTT against SLCO6A1 | inactive: 0.0239
106 | GAAGUACCCUGACAACCGATT against DOCK10 | inactive: -0.201
107 | GUGACUGCAUUCGAACAUATT against LAMA2 | inactive: 0.0733
